Results are given in words; binding and its absence hold for the method and conditions named. For some of these results: Binding calls can cover weak binding; strength is not graded here. For some of these results: Tags and fused reporters may be left off the sequences shown.
What was measured:
[1] = target: T1, GST-Ddi1, recombinant from E. coli (S. cerevisiae) (UniProt P40087); assay: condition: recombinant proteins (1 mg) in 500 μL lysis buffer; pull-down; in vitro; His6-T7-Irc22 mixed with GST fusions (recombinant proteins from E. coli, 1 mg) in lysis buffer and incubated with glutathione-Sepharose 4B, 1 h at 4 °C; immunoblot with anti-T7; both purified
T1 sequence: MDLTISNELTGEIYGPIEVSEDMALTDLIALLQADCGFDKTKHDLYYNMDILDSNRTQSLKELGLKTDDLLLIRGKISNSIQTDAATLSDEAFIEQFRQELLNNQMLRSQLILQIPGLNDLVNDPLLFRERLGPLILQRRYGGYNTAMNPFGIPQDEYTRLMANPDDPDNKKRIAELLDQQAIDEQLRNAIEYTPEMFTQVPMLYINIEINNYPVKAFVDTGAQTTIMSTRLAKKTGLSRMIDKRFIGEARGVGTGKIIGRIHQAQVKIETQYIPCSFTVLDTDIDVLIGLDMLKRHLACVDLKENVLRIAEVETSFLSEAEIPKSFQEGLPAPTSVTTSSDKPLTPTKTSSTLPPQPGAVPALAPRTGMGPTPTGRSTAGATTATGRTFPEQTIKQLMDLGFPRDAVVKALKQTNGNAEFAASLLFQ

Amino acid sequences for entries named in this document (tags omitted). A change or cut given only in a name is not applied to a line headed by its entry.
UniProt P48510: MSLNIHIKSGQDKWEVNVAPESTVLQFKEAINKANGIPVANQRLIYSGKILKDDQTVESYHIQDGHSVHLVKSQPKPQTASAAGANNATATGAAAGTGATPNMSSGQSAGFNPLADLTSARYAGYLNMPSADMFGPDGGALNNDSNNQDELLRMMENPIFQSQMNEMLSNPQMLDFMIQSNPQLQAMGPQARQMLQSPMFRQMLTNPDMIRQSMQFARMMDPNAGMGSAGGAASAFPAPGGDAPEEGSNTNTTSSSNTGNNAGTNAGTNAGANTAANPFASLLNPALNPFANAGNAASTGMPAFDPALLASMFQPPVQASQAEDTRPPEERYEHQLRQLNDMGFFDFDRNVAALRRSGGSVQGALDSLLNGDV
UniProt P40006: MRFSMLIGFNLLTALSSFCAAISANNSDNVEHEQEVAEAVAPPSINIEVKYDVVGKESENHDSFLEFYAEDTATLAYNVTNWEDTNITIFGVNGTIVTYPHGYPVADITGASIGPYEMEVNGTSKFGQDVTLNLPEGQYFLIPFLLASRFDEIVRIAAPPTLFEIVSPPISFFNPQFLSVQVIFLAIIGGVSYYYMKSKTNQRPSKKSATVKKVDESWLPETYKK

[2] = target: GST-Dsk2, recombinant from E. coli (S. cerevisiae) (UniProt P48510); assay: as above
[3] = target: T2, GST-Rad23, recombinant from E. coli (S. cerevisiae) (UniProt P32628); assay: as above
T2 sequence: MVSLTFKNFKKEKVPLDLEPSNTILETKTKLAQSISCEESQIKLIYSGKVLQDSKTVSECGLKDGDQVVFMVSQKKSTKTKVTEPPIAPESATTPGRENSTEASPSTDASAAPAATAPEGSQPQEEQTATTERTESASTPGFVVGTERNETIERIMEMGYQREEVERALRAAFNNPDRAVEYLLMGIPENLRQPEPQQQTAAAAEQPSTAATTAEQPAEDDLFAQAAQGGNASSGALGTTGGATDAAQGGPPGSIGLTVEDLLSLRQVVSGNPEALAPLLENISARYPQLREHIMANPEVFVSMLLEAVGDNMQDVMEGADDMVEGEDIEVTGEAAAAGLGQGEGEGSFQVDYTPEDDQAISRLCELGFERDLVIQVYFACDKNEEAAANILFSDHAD

[4] = target: T3, GST-Pth2, recombinant from E. coli (S. cerevisiae) (UniProt P34222); assay: pull-down; in vitro; His6-T7-Irc22 mixed with GST fusions (recombinant proteins from E. coli, 1 mg) in lysis buffer and incubated with glutathione-Sepharose 4B, 1 h at 4 °C; immunoblot with anti-T7; both purified
T3 sequence: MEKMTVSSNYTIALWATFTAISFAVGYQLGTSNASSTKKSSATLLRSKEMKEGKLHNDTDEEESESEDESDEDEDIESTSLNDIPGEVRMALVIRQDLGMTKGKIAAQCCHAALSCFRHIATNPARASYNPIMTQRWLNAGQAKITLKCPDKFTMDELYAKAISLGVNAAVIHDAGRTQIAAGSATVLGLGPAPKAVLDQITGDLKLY

binding [1]: no binding | binding [2]: no binding | binding [3]: no binding | binding [4]: binds
Substance: His6-T7-Irc22 (from UniProt P40006)

Source: publication PMC4092868
